Assay results as given in US5856309A (Boehringer Mannheim GmbH, priority 1997, dated 1999).

Tests used:
Conditions in all cases: whole synthesis, scale 0.03 mmol, HCl
[1] = general procedure: Fmoc solid-phase peptide synthesis; Fmoc-L-Tyr-TCP resin; TBTU/NMM
[2] = general procedure: Fmoc solid-phase peptide synthesis; Fmoc-L-Phe-TCP resin; TBTU/NMM
[3] = general procedure: Fmoc solid-phase peptide synthesis; Fmoc-L-Ser(t-Bu)-TCP; TBTU/NMM
[4] = general procedure: Fmoc solid-phase peptide synthesis; Fmoc-L-Trp-TCP resin; TBTU/NMM

## Ada-Gly-Asp-Tyr
[1]
  crude mass: 12 mg

## Troc-Ada-Gly-Asp-Phe
[2]
  crude mass: 14 mg

## Troc-Ada-Gly-Asp-Ser
[3]
  crude mass: 15 mg

## Troc-Ada-Gly-Asp-Trp
[4]
  crude mass: 16 mg
